# Experimental data from article PMC9561711.
# Amino acid sequences for entries named in this document (tags omitted).
# UniProt P38398: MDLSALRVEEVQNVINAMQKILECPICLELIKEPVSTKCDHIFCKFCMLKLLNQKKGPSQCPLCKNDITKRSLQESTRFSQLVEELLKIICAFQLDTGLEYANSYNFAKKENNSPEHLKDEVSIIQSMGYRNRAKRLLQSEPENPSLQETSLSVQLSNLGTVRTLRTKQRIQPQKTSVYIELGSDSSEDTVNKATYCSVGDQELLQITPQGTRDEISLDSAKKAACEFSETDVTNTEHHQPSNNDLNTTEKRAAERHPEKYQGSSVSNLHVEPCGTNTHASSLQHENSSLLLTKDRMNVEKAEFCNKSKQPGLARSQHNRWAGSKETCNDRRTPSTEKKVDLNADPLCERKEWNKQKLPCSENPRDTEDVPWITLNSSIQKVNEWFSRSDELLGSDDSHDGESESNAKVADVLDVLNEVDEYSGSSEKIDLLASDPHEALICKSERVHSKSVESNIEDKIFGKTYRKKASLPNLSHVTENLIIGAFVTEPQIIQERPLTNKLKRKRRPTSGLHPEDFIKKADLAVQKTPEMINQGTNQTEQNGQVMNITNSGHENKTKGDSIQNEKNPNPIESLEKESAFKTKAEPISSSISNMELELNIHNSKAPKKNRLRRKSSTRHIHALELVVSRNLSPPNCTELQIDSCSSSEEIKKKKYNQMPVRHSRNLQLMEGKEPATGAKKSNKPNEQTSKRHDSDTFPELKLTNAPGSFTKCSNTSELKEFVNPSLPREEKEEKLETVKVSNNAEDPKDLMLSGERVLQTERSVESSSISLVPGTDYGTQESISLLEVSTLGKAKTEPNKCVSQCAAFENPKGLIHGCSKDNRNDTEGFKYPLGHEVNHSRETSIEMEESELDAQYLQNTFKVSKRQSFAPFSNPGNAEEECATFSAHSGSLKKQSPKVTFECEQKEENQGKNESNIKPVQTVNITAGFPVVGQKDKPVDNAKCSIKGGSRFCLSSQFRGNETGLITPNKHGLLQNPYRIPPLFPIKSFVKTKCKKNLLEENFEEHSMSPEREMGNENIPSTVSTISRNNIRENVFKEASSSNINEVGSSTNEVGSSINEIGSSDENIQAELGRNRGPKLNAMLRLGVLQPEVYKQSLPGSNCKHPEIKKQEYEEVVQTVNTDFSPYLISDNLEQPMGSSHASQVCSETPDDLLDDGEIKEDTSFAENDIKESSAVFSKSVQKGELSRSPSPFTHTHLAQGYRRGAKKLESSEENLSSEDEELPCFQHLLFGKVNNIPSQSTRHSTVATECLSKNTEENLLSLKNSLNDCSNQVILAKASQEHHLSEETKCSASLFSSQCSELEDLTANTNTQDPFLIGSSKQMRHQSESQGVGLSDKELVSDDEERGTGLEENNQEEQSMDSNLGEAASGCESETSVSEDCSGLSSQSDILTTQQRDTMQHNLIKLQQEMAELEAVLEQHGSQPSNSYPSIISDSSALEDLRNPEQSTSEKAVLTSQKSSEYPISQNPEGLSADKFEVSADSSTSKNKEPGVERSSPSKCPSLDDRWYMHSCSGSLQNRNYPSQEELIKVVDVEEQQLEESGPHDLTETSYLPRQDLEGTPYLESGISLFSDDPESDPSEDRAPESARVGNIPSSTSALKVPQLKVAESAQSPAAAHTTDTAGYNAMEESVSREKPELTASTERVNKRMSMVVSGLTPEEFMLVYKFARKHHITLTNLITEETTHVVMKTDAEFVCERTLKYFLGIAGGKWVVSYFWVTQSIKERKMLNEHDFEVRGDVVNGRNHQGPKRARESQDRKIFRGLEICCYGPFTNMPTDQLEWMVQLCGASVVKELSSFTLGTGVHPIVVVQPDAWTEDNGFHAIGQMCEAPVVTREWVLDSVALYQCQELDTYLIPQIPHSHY
# UniProt Q15648: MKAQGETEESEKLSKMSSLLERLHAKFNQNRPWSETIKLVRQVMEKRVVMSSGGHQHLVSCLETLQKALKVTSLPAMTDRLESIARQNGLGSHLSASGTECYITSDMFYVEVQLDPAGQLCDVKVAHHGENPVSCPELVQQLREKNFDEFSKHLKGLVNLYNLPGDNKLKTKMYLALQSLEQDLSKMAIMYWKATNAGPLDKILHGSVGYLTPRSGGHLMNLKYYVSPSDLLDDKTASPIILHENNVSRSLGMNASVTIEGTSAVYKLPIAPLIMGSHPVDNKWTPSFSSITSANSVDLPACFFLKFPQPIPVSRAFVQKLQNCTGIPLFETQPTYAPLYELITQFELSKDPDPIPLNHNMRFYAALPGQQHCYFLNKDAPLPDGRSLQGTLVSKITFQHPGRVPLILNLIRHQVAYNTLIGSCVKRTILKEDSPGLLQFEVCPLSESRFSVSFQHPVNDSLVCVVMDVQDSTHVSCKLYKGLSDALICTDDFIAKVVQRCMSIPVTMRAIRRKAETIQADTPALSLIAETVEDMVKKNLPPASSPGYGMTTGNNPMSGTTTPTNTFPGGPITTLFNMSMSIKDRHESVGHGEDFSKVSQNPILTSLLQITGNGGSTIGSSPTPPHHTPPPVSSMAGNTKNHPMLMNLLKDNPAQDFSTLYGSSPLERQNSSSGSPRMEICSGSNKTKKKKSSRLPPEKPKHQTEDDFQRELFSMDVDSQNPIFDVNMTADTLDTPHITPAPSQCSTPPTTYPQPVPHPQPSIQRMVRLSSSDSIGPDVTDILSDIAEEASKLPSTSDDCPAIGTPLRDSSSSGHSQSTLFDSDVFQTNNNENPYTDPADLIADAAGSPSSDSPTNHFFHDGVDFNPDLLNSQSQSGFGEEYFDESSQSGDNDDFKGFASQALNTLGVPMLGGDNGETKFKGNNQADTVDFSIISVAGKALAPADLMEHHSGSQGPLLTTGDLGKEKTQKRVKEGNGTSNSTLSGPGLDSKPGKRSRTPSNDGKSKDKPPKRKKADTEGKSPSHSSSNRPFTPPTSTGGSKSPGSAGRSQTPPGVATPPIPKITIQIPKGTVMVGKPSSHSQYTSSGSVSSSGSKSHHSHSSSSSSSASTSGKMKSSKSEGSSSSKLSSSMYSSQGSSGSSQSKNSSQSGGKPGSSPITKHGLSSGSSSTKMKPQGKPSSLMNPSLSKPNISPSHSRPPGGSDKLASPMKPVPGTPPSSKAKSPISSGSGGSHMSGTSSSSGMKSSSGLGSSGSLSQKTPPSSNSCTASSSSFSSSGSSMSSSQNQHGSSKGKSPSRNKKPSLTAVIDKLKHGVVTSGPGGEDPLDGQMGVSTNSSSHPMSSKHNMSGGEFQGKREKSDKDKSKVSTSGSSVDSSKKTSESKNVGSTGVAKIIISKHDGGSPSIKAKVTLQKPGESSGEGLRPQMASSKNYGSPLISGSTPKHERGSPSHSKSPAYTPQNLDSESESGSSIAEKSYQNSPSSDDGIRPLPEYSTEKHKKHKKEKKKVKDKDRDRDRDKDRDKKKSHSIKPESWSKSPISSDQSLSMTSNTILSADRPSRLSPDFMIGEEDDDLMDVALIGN
# These are yes or no findings as the source states them, for the method shown. In cells and extracts the contact can be indirect. Some results given as binding are weak or reduced against the parent protein; the word gives no strength.
# Tests used:
# [1] = target: BRCA1 (human (endogenous in U2OS)) (UniProt P38398); test: co-IP; endogenous proteins; U2OS whole-cell extracts in RIPA buffer; IP with anti-BRCA1 or anti-MED1 antibodies or preimmune IgG, protein G Sepharose 4 Fast Flow; immunoblot
# [2] = target: BRCA1 (human (endogenous in U2OS)) (UniProt P38398); test: condition: only in the presence of lambda-protein phosphatase, DNase, and RNase; co-IP; same IP of endogenous proteins from U2OS extracts, samples treated with lambda protein phosphatase, DNase I or RNase
substance,measurement,setting,value
Mediator complex subunit 1 (MED1) (from UniProt Q15648 1-1581),binding,[1],binds
same,binding,[2],no binding
